PubChem BioAssay AID602196 | INSERM – 2012
Aim: 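Modifiers of cisplatin sensitivity in A549 cells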. System: human A549 lung cancer cells. Reagents: siRNA pair against human genes. Duration: 48 h transfection before cisplatin; time from cisplatin to read-out not stated. Challenge: cisplatin at a dose killing half of control-siRNA cells; exact dose and duration not given. Read-out: 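Shift in cisplatin death relative to control siRNA, from -50 (all cells die) to +50 (no cells die); siRNAs harmful on their own scored 0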. Reading the numbers: two-siRNA summed score (-2 to +2): higher = both siRNAs protect from cisplatin killing; -2 means both sensitise. Active means: 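Each siRNA scores 0 if harmful alone by LDH or WST-1, otherwise +1 if it reduces and -1 if it increases cisplatin killing; a gene is active when both siRNAs agree (sum +2 or -2)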. Meaning of the calls: active = both siRNAs shift cisplatin killing the same way; inactive = no consistent shift, or siRNA harmful alone.
The whole screen tested about 23,000 reagents; shown is a part drawn at random. 455 of them (2%) were called active. 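Active includes both protection and sensitisation; some change values fall well beyond the stated -50 to +50 range.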 Not all columns of the deposit are shown. Not given: the amount of reagent.

How did the screen score TJP2?
two-siRNA summed score (-2 to +2): 0; Outcome: inactive

What did the screen give for NECAP1?
two-siRNA summed score (-2 to +2): 0; Outcome: inactive

What did the screen give for BRD10?
two-siRNA summed score (-2 to +2): -1; Outcome: inactive

With CXCR3, what was measured?
two-siRNA summed score (-2 to +2): 0; Outcome: inactive

With LOC391444, how do the results read?
two-siRNA summed score (-2 to +2): 0; Outcome: inactive

Quoted from the listing, 2 entries:
NECAP1 | two-siRNA summed score (-2 to +2) = 0; Outcome = inactive
BRD10 | two-siRNA summed score (-2 to +2) = -1; Outcome = inactive

Next results follow:
What did the screen give for FIG4?
two-siRNA summed score (-2 to +2): 0; Outcome: inactive

With FZD1, what was measured?
two-siRNA summed score (-2 to +2): 0; Outcome: inactive

For CIBAR2, what does the deposit list?
two-siRNA summed score (-2 to +2): 0; Outcome: inactive

With C22orf23, how do the results read?
two-siRNA summed score (-2 to +2): 0; Outcome: inactive

For LOC388144, how do the results read?
two-siRNA summed score (-2 to +2): 0; Outcome: inactive

How did the screen score PBRM1?
two-siRNA summed score (-2 to +2): 0; Outcome: inactive

What is on record for LOC442053?
two-siRNA summed score (-2 to +2): 0; Outcome: inactive
